The values that follow come from article PMC3102665, “A Sir2-Like Protein Participates in Mycobacterial NHEJ” (PLoS ONE, 2011).

Results are given in words; binding and its absence hold for the method and conditions named. Some binding calls cover weakened binding; strength is not graded here. Where a sequence is shown, tags or fusion partners need not be part of it.

This experiment concerns the target T1, GST-MsmSir2 fusion protein (M. smegmatis) (UniProt A0R2N3).
T1 sequence: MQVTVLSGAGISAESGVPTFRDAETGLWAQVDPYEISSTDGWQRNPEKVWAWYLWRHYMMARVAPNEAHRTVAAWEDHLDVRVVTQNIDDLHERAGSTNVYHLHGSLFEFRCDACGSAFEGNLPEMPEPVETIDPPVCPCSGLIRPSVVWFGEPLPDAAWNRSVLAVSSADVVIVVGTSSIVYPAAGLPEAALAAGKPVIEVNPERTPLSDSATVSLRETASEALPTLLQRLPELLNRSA
As to the kind of experiment: pull-down; GST fusion held on glutathione-Sepharose 4B beads, incubated with purified His-tagged protein at 4°C for 8 h in 50 mM Tris-HCl pH 7.5, 200 mM NaCl, 10% glycerol; washes with 0.1% Nonidet P-40; Western blot with anti-His-tag antibody; both purified. For orientation: Immunoblotting shows a protein as a band on a membrane.

B1: His-MsmKu protein (protein, UniProt A0R3S7 1-318)
chain: MRSIWKGSIAFGLVNVPVKVYSATEDHDIKFHQVHAKDNGRIRYKRVCEVCGEVVEYRDINKAFESDDGQMVVITDEDIATLPEERSREIEVVEFIPAEQLDPLMYDKSYFLEPDSKSSKSYVLLAKTLAETDRIAIVHFSLRNKSRLAALRVKDFSKRDVMMIHTLLWPDEIRDPDFPILDKEVQIKPAELKMAGQVVESMTDDFKPDLYHDDYQEQLRELVQAKLEGGEAFSVEEQPAELDEGTEDVSDLLAKLEASVKARKGGKSDSKDDSDSESDSKESKSDSKPAKKAPAKKAAAKKSTAKKAPAKKAAAKKS
For B1, the binding entry is reported as “binds”.
